No constants are given. Whether binding was seen depends on the method and setting. In cells and extracts the contact can be indirect. Some binding calls cover weakened binding; strength is not graded here.
What was measured:
[1] = molecular target: transient receptor potential vanilloid 1 (TRPV1) (rat (endogenous in primary SFO neurons)) (UniProt O35433); test: co-IP; primary SFO neuron lysate; precipitated with anti-TRPV4, anti-TRPV1 or anti-HO-2 antibody and Protein A/G Plus-Agarose beads, 4 °C overnight, washed thrice with PBS; blots for HO-2, HO-1, TRPV4, TRPV1; neurons with or without hypoxia (superfusion with hypoxic medium for 2 min)
[2] = molecular target: transient receptor potential vanilloid 4 (TRPV4) (rat (endogenous in primary SFO neurons)) (UniProt Q9ERZ8); test: as above

Sequences of proteins named here, by UniProt entry; tags and fusion partners are left off.
UniProt O35433: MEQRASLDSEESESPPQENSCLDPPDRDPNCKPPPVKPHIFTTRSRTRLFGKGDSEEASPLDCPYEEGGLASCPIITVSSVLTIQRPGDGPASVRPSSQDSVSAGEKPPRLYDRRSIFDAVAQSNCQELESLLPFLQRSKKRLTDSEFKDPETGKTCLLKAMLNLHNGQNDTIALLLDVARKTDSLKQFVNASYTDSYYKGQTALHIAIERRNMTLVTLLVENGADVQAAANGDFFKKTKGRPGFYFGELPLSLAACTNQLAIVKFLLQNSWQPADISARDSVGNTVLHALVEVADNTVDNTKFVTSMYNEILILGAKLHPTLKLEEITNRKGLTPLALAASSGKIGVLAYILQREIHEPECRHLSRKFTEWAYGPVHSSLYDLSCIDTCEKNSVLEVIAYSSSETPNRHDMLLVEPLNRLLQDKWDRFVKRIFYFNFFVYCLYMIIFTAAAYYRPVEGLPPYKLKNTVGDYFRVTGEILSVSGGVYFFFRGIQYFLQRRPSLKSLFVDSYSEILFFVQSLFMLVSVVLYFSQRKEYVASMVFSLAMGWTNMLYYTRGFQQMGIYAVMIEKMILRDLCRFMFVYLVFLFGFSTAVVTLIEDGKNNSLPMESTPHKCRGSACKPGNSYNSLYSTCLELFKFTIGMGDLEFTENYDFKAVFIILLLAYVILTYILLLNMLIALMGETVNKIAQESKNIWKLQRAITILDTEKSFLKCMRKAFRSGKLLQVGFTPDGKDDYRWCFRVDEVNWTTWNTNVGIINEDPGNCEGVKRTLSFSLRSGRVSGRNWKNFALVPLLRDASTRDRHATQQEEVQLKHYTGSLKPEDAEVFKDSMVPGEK
UniProt Q9ERZ8: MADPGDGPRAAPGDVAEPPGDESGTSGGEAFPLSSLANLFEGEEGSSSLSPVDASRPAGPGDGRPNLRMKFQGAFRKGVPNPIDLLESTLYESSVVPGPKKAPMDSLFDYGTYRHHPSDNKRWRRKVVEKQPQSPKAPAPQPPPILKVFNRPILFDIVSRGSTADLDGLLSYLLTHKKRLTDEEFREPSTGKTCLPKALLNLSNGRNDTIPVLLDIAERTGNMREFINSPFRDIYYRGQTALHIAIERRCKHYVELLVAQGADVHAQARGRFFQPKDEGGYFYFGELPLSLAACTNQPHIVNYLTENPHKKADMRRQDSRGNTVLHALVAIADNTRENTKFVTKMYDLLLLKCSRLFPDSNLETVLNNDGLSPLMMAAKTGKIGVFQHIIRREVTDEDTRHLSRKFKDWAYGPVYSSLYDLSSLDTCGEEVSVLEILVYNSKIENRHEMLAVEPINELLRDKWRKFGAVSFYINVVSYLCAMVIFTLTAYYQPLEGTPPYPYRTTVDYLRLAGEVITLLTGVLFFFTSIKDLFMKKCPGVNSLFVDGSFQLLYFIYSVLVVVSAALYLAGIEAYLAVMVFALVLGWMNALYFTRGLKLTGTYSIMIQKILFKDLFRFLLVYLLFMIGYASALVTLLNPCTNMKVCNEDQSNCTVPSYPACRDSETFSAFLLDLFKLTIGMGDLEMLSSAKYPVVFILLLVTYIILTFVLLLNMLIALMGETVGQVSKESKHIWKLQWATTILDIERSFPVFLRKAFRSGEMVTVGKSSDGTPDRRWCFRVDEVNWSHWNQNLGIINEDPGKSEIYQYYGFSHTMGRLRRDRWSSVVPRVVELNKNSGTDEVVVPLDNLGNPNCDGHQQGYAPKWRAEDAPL

Row | binding [1] | binding [2] | Binder
1 | no binding | binds | hemeoxygenase-2 (HO-2) (enzyme, UniProt P23711 1-315) MSSEVETSEGVDESENNSTAPEKENHTKMADLSELLKEGTKEAHDRAENTQFVKDFLKGNIKKELFKLATTALYFTYSALEEEMDRNKDHPAFAPLYFPTELHRKEALIKDMEYFFGENWEEQVKCSEAAQKYVDRIHYVGQNEPELLVAHAYTRYMGDLSGGQVLKKVAQRALKLPSTGEGTQFYLFEHVDNAQQFKQFYRARMNALDLSMKTKERIVEEANKAFEYNMQIFSELDQAGSMLTKETLEDGLPVHDGKGDVRKCPFYAAQPDKGTLGGSNCPFRTAMAVLRKPSLQLILAASVALVAGLLAWYYM
2 | no binding | no binding | HO-1 (enzyme, UniProt P06762 1-289) MERPQLDSMSQDLSEALKEATKEVHIRAENSEFMRNFQKGQVSREGFKLVMASLYHIYTALEEEIERNKQNPVYAPLYFPEELHRRAALEQDMAFWYGPHWQEAIPYTPATQHYVKRLHEVGGTHPELLVAHAYTRYLGDLSGGQVLKKIAQKAMALPSSGEGLAFFTFPSIDNPTKFKQLYRARMNTLEMTPEVKHRVTEEAKTAFLLNIELFEELQALLTEEHKDQSPSQTEFLRQRPASLVQDTTSAETPRGKSQISTSSSQTPLLRWVLTLSFLLATVAVGIYAM

From paper PMC4951807
